The other results are listed elsewhere or left out.
Molecular target: TTI2_Q6NXR4_270_ILGVHCLHHIVLNVPAADLLQYNR (UniProt Q6NXR4)
Test: probe-labelled cysteine peptide fold change vs DMSO (competition) (log2 fold change); higher = less target engagement (more negative = stronger competition)
Conditions: THP-1, incubation time: 4 h
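Also: competitive profiling in live THP-1 cells: cysteine peptides tagged with an iodoacetamide desthiobiotin (IA-DTB) probe, intensity after compound treatment relative to DMSO-treated cells.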

Amino acid sequences for entries named in this document (tags omitted). A change or cut given only in a name is not applied to a line headed by its entry.
UniProt Q6NXR4: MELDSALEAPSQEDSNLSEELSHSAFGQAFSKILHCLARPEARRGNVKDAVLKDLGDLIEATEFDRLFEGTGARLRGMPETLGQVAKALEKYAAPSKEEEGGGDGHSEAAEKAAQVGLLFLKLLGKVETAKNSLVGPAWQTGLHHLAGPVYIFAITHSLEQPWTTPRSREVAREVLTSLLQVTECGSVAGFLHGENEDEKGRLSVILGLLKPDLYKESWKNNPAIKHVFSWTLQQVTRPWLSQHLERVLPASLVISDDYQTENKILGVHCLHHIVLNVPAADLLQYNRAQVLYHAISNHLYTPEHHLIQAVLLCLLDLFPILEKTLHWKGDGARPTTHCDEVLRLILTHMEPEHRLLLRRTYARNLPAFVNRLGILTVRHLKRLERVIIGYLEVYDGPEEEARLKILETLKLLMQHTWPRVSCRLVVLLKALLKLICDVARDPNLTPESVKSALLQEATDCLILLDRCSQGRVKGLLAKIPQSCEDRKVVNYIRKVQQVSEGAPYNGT

Cc1cc(C(=O)N2CCCN(C(=O)CCl)CC2)ccc1-c1ccccc1 [compound 10]
probe-labelled cysteine peptide fold change (10 µM): 0.268 | probe-labelled cysteine peptide fold change (50 µM): 0.174

Source: the supplement of paper PMC12067093, “Discovery and optimisation of a covalent ligand for TRIM25 and its application to targeted protein ubiquitination” (Chemical Science, 2025)
